Measured values taken from PMC8274477.
These are yes or no findings as the source states them, for the method shown. Some binding calls cover weakened binding; strength is not graded here.

What was measured:
Test in all cases: peptide or protein array; HuProt human proteome microarray; 5 ug/5 ml biotin-labelled LUBAC or OTULIN in solution, 1 h at room temperature; Cy5-streptavidin, scanned at 635 nm; BSA as negative control; hits: Z-score >= 3 and I_(Mean_Ratio) >= 1.4; both purified
[1] = biological target: T1, AKR1C3 (human) (UniProt P42330)
T1 sequence: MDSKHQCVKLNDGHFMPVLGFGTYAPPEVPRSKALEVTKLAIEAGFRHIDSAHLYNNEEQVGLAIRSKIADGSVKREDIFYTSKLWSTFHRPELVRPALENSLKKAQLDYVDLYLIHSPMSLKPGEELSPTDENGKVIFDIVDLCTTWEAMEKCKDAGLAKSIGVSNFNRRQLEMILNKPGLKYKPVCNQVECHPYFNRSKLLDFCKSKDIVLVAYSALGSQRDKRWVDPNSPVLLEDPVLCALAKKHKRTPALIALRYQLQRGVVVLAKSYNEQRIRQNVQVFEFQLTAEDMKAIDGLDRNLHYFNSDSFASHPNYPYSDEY

[2] = biological target: T2, AKR1D1 (human) (UniProt P51857)
T2 sequence: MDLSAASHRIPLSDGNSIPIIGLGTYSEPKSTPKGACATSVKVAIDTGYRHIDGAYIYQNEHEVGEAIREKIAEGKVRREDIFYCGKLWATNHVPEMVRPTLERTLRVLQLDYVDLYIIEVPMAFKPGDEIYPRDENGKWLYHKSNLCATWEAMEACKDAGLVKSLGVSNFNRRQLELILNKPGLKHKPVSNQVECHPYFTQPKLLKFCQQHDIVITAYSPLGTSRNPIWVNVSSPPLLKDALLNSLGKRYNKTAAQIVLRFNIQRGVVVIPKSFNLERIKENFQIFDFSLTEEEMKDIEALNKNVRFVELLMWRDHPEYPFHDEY

[3] = biological target: T3, POGZ (human) (UniProt Q7Z3K3)
T3 sequence: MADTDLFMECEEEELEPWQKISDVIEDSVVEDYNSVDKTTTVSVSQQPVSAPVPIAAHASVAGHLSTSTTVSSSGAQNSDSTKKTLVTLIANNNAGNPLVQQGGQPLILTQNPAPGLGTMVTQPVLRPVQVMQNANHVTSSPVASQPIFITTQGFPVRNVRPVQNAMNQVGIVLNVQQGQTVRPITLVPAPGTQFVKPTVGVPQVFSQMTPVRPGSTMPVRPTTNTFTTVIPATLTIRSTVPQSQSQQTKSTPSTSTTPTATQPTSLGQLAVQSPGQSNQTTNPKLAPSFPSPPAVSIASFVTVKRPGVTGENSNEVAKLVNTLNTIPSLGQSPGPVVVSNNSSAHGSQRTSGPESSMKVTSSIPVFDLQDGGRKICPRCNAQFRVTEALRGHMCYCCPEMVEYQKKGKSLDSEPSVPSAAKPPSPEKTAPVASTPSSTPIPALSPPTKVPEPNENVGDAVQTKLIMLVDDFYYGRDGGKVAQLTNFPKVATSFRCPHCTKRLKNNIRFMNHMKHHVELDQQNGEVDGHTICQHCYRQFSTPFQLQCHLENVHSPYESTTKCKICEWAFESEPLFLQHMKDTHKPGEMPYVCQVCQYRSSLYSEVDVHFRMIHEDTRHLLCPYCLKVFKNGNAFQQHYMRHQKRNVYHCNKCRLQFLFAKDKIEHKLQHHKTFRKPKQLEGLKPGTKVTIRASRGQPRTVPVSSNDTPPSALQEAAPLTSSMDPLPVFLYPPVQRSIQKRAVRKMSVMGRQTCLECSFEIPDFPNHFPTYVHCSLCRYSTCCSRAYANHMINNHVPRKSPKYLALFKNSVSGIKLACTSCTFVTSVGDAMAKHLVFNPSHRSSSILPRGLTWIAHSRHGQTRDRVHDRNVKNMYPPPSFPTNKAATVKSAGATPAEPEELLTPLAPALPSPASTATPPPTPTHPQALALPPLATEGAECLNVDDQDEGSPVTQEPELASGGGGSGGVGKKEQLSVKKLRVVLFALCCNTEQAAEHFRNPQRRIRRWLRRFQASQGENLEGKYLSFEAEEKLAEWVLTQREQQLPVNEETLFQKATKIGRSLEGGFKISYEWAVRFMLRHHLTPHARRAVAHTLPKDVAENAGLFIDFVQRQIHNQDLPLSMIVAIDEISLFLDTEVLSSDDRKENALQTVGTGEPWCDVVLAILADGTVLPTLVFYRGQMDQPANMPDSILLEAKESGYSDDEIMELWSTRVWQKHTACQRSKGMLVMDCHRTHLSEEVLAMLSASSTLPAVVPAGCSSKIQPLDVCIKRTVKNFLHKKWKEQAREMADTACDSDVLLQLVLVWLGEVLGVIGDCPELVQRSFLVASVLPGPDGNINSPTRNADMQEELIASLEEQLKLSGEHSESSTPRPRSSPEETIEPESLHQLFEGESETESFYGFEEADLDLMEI

Measured: binding

linear ubiquitin chain assembly complex (LUBAC), purified as HIS-tagged HOIP with the subunit HOIL-1, biotin-labelled (from UniProt Q96EP0 1-1072; Q9BYM8 1-510)
binds: all assays above
